Source: PubChem BioAssay AID504744 (Drosophila RNAi Screening Center, 2011)

Test: 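Identify dsRNAs that increase or decrease phospho-dAkt after insulin treatment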 (primary screen)
System: Drosophila Kc167 cells
Reagents: long dsRNA against Drosophila genes, 250 ng dsRNA per well of a 384-well plate
Time to read-out: 3 days of knock-down, then overnight serum-free starvation before stimulation
Treatment: bovine insulin at 387 nM for 10 minutes after 12 h without serum
Detection: 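In-cell antibody fluorescence for phospho-dAkt in each well over DNA-dye signal, with log2 residuals expressed as z-scores adjusted for cell count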
Hit rule: 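Under insulin, a gene counts as a hit if the average z-score of two replicates lies above 2.5 or below -2.5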
The screen tested about 23,000 reagents; this is a random part of those with a known target gene and a result. Over the whole deposit, 98 (0.43%) are marked active. 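Only hit calls are given; the phospho-dAkt signals, z-scores and hit direction were not deposited.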 A plus sign joins genes that one reagent is predicted to hit.

After knock-down of Obp44a [DRSC06838], the record shows inactive.
Silencing of PHDP [DRSC04635] gave: inactive.
For CG8119 [DRSC20083] the deposit lists inactive.
After knock-down of CG30419 [DRSC04208] the results were inactive.
After knock-down of CG30419 [DRSC04209], the record shows inactive.
With knock-down of CG30419 [DRSC22519], the screen gave inactive.
Against CG7579 [DRSC10885], the entry reads inactive.
Lkb1 [DRSC16481] showed inactive.
Depletion of tra [DRSC11405] came out at: inactive.
Silencing of baz [DRSC20309] gave: inactive.
Against TyrRII [DRSC15150] the deposit lists inactive.
After knock-down of CG33992 (retired record) + CG43755 [DRSC00012], the record shows inactive.
Knock-down of CG11122 [DRSC19382] resulted in: inactive.
For danr [DRSC14651] the deposit lists inactive.
Against rtv [DRSC19541] the deposit lists inactive.
After knock-down of CG34253 [DRSC09531], the record shows inactive.
Task7 [DRSC16477] gave inactive.
Knock-down of MED25 [DRSC14483] resulted in: inactive.
With knock-down of Cox11 [DRSC22692], the record shows inactive.
nrv1 [DRSC03382] scored active.
Against CG4367 [DRSC15568], the values are inactive.
Silencing of veil [DRSC06892] came out at: inactive.
With knock-down of CG12069 [DRSC14470], the screen gave inactive.

Called active (from the list above):
nrv1 [DRSC03382]: Outcome = active
